The list does not hold the whole screen: it gathers tests that were run many times, whatever their T/C, doses with no T/C, and many T/C values between a quarter and a half above the control. Further doses and runs are listed elsewhere. T/C: endpoint of the treated group in % of that of the vehicle group. Some doses have a count of surviving animals in place of a T/C: the source holds a T/C of zero for them, seemingly a mark for toxic or unscored doses. Some survivor counts are full or nearly so, which does not show that the dose was tolerated: the source hardly ever lists a survival T/C far under the control, and the zero likely stands for such cases as well. Counts of survivors are from the toxicity check (mostly the fifth day) where no day follows; animals may have died later. Schedules are NCI's codes, read here as Q, the interval in days (D) or hours (H), X, the number of doses. Some entries hold several experiments; their values stand side by side, smallest first. For survival time, this PubChem deposit counts one and a half times the control or more as active, and values a quarter to a half above the control carry no call in these data; other NCI protocols may use other cut-offs. Marks such as (2×) say how often a value occurs here. Some T/C values are followed by the survivors on the day toxicity was checked, most often the fifth; where none is given, no animal had died by that day.

Here are results for 23 compounds from PubChem BioAssay AID328 (DTP/NCI, 2004).

This assay deals with BDF1 mice, P388 leukemia ip, median survival T/C. The assay can be described thus: NCI In Vivo Anticancer Drug Screen. Data for tumor model P388 Leukemia (intraperitoneal) in B6D2F1 (BDF1) mice. As to conditions: T/C endpoint: median survival time, higher T/C = longer survival. An outline of the steps: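 Steps: implant the tumour, treat one group with compound and another with vehicle, record survival, then divide treated by control.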

[1] abbreviates: dose: 12.5 mg/kg/injection, schedule: Q01DX009 (ip), vehicle: water.
The mark [2] stands for this setting: dose: 200.0 mg/kg/injection, schedule: Q01DX009 (ip), vehicle: saline with Tween-80.
The mark [3] stands for this setting: dose: 100.0 mg/kg/injection, schedule: Q01DX009 (ip), vehicle: saline with Tween-80.
Where [4] appears, read: dose: 400.0 mg/kg/injection, schedule: Q01DX009 (ip), vehicle: saline with Tween-80.
The mark [5] stands for this setting: dose: 10.0 mg/kg/injection, schedule: Q01DX009 (ip), vehicle: saline.
[6] abbreviates: dose: 400.0 mg/kg/injection, schedule: Q04DX003 (ip), vehicle: saline with Tween-80.

In the case of `C[n+]1cc2c3ccccc3c(N)cc2c2ccccc21`, the T/C reads like this: (dose: 1.56 mg/kg/injection, schedule: Q01DX009 (ip), vehicle: water) 132 % of control; (dose: 6.25 mg/kg/injection, schedule: Q01DX009 (ip), vehicle: water) 132 % of control; under setting [1], 132 % of control; (dose: 25.0 mg/kg/injection, schedule: Q04DX003 (ip), vehicle: water) 127 % of control; (dose: 50.0 mg/kg/injection, schedule: Q04DX003 (ip), vehicle: water) 136 and 138 % of control; (dose: 100.0 mg/kg/injection, schedule: Q04DX003 (ip), vehicle: water) 129 % of control. Moreover, the survivor count reads like this: under setting [1], 4 of 6; (dose: 50.0 mg/kg/injection, schedule: Q01DX009 (ip), vehicle: water) 3 of 6; (dose: 200.0 mg/kg/injection, schedule: Q04DX003 (ip), vehicle: water) 4 of 6 and 6 of 6.
For `OCC(Br)(Br)Br`, the survivor count (dose: 400.0 mg/kg/injection, schedule: Q01DX009 (ip), vehicle: other) was 0 of 6.
Regarding `C=CCc1c2[n+](cc3c(OC)c(OC)ccc13)CCc1cc3c(cc1-2)OCO3`, the survivor count is given as 6 of 6 (dose: 3.12 mg/kg/injection, schedule: Q01DX005 (ip), vehicle: saline); 6 of 6 (dose: 6.25 mg/kg/injection, schedule: Q01DX005 (ip), vehicle: saline); 0 of 6 (dose: 12.5 mg/kg/injection, schedule: Q01DX005 (ip), vehicle: saline); 0 of 6 (dose: 50.0 mg/kg/injection, schedule: Q01DX005 (ip), vehicle: saline with Tween-80); 0 of 6 (dose: 100.0 mg/kg/injection, schedule: Q01DX005 (ip), vehicle: saline with Tween-80); 0 of 6 (dose: 200.0 mg/kg/injection, schedule: Q01DX005 (ip), vehicle: saline with Tween-80).
Consider `CCCCCCCCCCCCCC[N+](C)(C)CCCCCCCCCCCCCC`, for which the T/C runs as follows: (dose: 12.5 mg/kg/injection, schedule: Q01DX009 (ip), vehicle: saline) 125 % of control; (dose: 25.0 mg/kg/injection, schedule: Q01DX009 (ip), vehicle: saline) 115, 123, 125, 129 % of control. The survivor count (dose: 37.5 mg/kg/injection, schedule: Q01DX009 (ip), vehicle: saline) is 6 of 6; the survivor count (dose: 50.0 mg/kg/injection, schedule: Q01DX009 (ip), vehicle: saline) is on record as 4 of 6; the survivor count (dose: 100.0 mg/kg/injection, schedule: Q01DX009 (ip), vehicle: saline) is 1 of 6; the survivor count (dose: 100.0 mg/kg/injection, schedule: Q04DX003 (ip), vehicle: saline) was 4 of 6.
With `CN1CCOC1=Nc1ccc(Cl)cc1`, under “dose: 200.0 mg/kg/injection, schedule: Q04DX003 (ip), vehicle: saline with Tween-80”, the survivor count was 6 of 6.
As to `Nc1nc(N)c(Nc2ccc(Cl)cc2)c(Cl)n1`, the survivor count (dose: 400.0 mg/kg/injection, schedule: Q01DX001 (ip), vehicle: saline with Tween-80) is given as 0 of 6.
With `O=[N+]([O-])c1cc(-c2nc3ccccc3[nH]2)cc([N+](=O)[O-])c1`, the T/C under setting [2] was 128 % of control.
With `COc1cc(Cl)c(CC(=O)c2c[nH]c3ccccc23)cc1OC`, the survivor count is on record as 5 of 6 under setting [3] and 6 of 6 under setting [4].
`COc1cccc2c1C(=O)c1c(O)c3c(c(O)c1C2=O)CC(O)(C(=O)C(C)C)CC3OC1CC(N)C(O)C(C)O1` (stereo not given): the survivor count (dose: 150.0 mg/kg/injection, schedule: Q04DX003 (ip), vehicle: water) was 0 of 3.
Take `CCOC(=O)c1cnn2c(SC)ncnc12`: the survivor count is listed as 6 of 6 under setting [3], 4 of 6 under setting [2] and 0 of 6 under setting [4].
Take `O=C1OC(=O)C2C1C1C3C=CC3C1C21C=C1` (stereo not given): the T/C (dose: 200.0 mg/kg/injection, schedule: Q01DX001 (ip), vehicle: saline) is 129 % of control [5 of 6 alive].
Consider `Cc1ccc(NC(=O)Oc2c(C)cc(Cl)cc2C)c([N+](=O)[O-])c1`, for which, under setting [3], the survivor count was 6 of 6.
For `CS(=O)(=O)OCC(=O)NCC(O)CNC(=O)COS(C)(=O)=O`, the T/C (dose: 118.0 mg/kg/injection, schedule: Q04DX003 (ip), vehicle: saline with Tween-80) is 146 % of control and the T/C (dose: 600.0 mg/kg/injection, schedule: Q04DX003 (ip), vehicle: saline with Tween-80) was 136 % of control.
In the case of `CC(=O)C1COC(O)C1C` (stereo not given), the T/C (dose: 5.0 mg/kg/injection, schedule: Q01DX009 (ip), vehicle: saline) was 142 % of control (2×); the T/C (dose: 5.0 mg/kg/injection, schedule: Q01DX010 (ip), vehicle: saline) was 129 % of control; the T/C under setting [5] was 130 % of control. Also, the survivor count under setting [5] was 5 of 6.
With `O=C1C=C(N2CC2)c2ccccc2C1=O`, under “dose: 22.0 mg/kg/injection, schedule: Q04DX003 (ip), vehicle: saline with Tween-80”, the T/C was 127 % of control. The survivor count is 2 of 6 (dose: 33.0 mg/kg/injection, schedule: Q04DX003 (ip), vehicle: saline with Tween-80); 0 of 6 (dose: 37.5 mg/kg/injection, schedule: Q04DX003 (ip), vehicle: saline with Tween-80); 0 of 6 (dose: 40.0 mg/kg/injection, schedule: Q01DX009 (ip), vehicle: Klucel (hydroxypropylcellulose) (HPC)); 1 of 6 (dose: 50.0 mg/kg/injection, schedule: Q04DX003 (ip), vehicle: saline with Tween-80); 0 of 6 (dose: 75.0 mg/kg/injection, schedule: Q04DX003 (ip), vehicle: saline with Tween-80).
`CCCOP(=S)(N1CC1C)N1CC1(C)C` (stereo not given): the T/C (dose: 66.0 mg/kg/injection, schedule: Q04DX003 (ip), vehicle: saline with Tween-80) is 145 % of control. For the same compound, the survivor count under setting [6] was 4 of 6.
On to `O=C1C(C2OC2c2ccccc2)CCCC1C1OC1c1ccccc1` (stereo not given), for which, under setting [3], the survivor count is recorded as 6 of 6.
`COc1cc2c3cc1Oc1c(OC)c(OC)cc4c1C(Cc1cc5c(c(c1)Oc1ccc(cc1)CC3N(C)CC2)OCO5)N(C)CC4` (stereo not given): the survivor count (dose: 10.0 mg/kg/injection, schedule: Q01DX010 (ip), vehicle: saline) is listed as 6 of 6.
Turning to `COc1ccc(/C=C(/C)[N+](=O)[O-])cc1OC`, the survivor count (dose: 400.0 mg/kg/injection, schedule: Q04DX003 (ip), vehicle: Klucel (hydroxypropylcellulose) (HPC)) is on record as 5 of 6.
As to `COc1cc(C(C2=C(O)c3ccccc3C(=O)C2=O)C2=C(O)c3ccccc3C(=O)C2=O)cc(Br)c1O`, the T/C (dose: 50.0 mg/kg/injection, schedule: Q01DX001 (ip), vehicle: saline) was 142 % of control.
As for `CC(=O)CC(C)=O.CC(=O)CC(C)=O.c1cc[c]([Sn][c]2ccccc2)cc1`, the T/C was 132 % of control (dose: 25.0 mg/kg/injection, schedule: Q01DX001 (ip), vehicle: Klucel (hydroxypropylcellulose) (HPC)) and 134 % of control (dose: 50.0 mg/kg/injection, schedule: Q01DX001 (ip), vehicle: Klucel (hydroxypropylcellulose) (HPC)).
Turning to `CCOC(=O)C(C#N)c1cccc(C)c1` (stereo not given), the survivor count under setting [6] was 0 of 6.
As to `[Cl][Pt+2][Cl].[NH-]C1CCC1.[NH-]C1CCC1`, the survivor count (dose: 100.0 mg/kg/injection, schedule: Q01DX009 (ip), vehicle: Klucel (hydroxypropylcellulose) (HPC)) is reported as 6 of 6.
